Source: US20090196880A1 (VASGENE THERAPEUTICS, published 2009)
No constants are given. Whether binding was seen depends on the method and setting. Some entries that bind do so weakly or less than the wild type. Where a sequence is shown, tags or fusion partners need not be part of it. Each block holds one binder with its values, some of them ahead of it.

Target: T1, biotin-labeled soluble EphB4-HSA fusion protein (human) (UniProt P54760)
T1 sequence (chain, biotin-labeled (site not stated)): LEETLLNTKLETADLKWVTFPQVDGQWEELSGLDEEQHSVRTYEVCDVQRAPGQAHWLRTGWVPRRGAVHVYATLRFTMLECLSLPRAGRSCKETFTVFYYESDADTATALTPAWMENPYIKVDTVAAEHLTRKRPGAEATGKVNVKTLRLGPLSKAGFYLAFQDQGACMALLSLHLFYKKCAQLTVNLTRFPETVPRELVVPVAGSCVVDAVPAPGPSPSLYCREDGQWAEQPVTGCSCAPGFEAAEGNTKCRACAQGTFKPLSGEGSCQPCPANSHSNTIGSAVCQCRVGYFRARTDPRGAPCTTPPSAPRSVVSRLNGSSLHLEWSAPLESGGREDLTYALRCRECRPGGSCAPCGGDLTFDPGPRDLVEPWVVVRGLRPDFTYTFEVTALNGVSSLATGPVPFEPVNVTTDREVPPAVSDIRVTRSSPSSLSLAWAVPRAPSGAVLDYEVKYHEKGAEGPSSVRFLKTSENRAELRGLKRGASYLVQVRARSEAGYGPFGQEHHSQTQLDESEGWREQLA
Assay: sandwich ELISA: NeutrAvidin plate, biotin-labeled soluble EphB4-HSA, detection with goat anti-human-Fc-HRP

binding: binds
B1: deimmunized #47 variant antibody with heavy chain variable region SEQ ID NO:3 and light chain variable region SEQ ID NO:8 (antibody, human IgG1, V domains shown)
VH: EVQLVQSGAEVKKPGASVKISCKASGYTFTDYYMNWVKQAPGKGLEWIGDNNPNNGGTTYNQKFKGRATLTVDKSTSTAYMELSSLRSEDTAVYYCARGKYYGTSYGWYFDVWGQGTTVTVSS
VL: DIQMTQSPSSLSASVGDRVTITCRISDNIDSYLAWFQQKPGKAPKLLVYDATVLADGVPSRFSGSGSGTDYTLTINSLQAEDAATYYCQVYYSIPWTFGQGTKLEIK

binding: binds
B2: mouse monoclonal antibody #47 (antibody, V domains shown)
VH: EVQLQQSGPELVKPGASVKISCKASGYTFTDYYMNWVKQSHGKGLEWIGDNNPNNGGTTYNQKFKGKATLTVDKSSSTAYMELRSLTSEDSAVYYCARGKYYGTSYGWYFDVWGTGTTVTVSS
VL: DIQMTQSPASLSASVGETVTITCRISDNIDSYLAWFQQKQGKSPQLLVYDATVLADGVPSRFSGSGSGTQYSLKINSLQSEDAARYYCQVYYSIPWTFGGGTKLEIK
notes: also called m47; Mu #47

binding: binds
B3: mouse monoclonal antibody #131 (antibody, V domains shown)
VH: QVQLKQSGAELVKPGASVKISCKASGYTFTDYYINWVKQRPGQGLEWIGKIGPRIGTNYYNENFKGKATLTADISSNTAYMQLHTLTSEDSAVYFCARSEDYSGYVSYALDYWGQGTSVTVSS
VL: NIVMTQSPKSMSMSVGERVTLSCKASENVDTYVSWYQQKPDQSPELLIYGASNRYTGVPDRFTGSGSATDFTLTISSVQAEDLADYHCGQTYRYPFTFGGGTKLEIK
notes: also called m131
